At least one structure is not confirmed: it was looked up by name or label, or the drawing left a doubt.
Tested on: DNA
Assay: DNA damage, comet formation
Assay type: cell-based
Text: There is a different fold increase of ROS levels in different cells treated with BZL101 compared to control untreated cells. It is of particular interest that the increase in ROS correlates well with the degree of DNA damage induced in these cells.
To further implicate ROS in the induction of DNA damage, comet formation in cells pretreated with the antioxidants NAC and pyruvate prior to the addition of BZL101 were examined.

SMILES: CC(=O)C(=O)O [pyruvate]
- effect on comet formation induced by BZL101 (cells pretreated prior to the addition of BZL101): significantly reduced the number of cells forming comets
- DNA damage repair in cancer cells (in the presence of the antioxidant, BZL101-treated cancer cells): greatly accelerated
